No constants are given. Whether binding was seen depends on the method and setting. In cells and extracts the contact can be indirect. Some results given as binding are weak or reduced against the parent protein; the word gives no strength. For some assays here: Sequences can lack the tags named with a protein.
Tests used:
[1] = target: T1, Prohibitin 1 (PHB1) (human (endogenous in DLD-1, HCT116 and SW480)) (UniProt P35232); experiment: co-IP; endogenous proteins, lysates of DLD-1 and HCT116 cells, IgG as control, Western blot
T1 sequence: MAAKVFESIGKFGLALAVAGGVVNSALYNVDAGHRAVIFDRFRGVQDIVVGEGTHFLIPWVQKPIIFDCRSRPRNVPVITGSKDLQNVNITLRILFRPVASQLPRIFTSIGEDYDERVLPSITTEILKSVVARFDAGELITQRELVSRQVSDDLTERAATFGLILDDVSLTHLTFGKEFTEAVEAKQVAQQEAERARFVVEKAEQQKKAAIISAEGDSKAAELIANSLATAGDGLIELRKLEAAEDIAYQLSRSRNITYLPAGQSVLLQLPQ

By UniProt entry, the sequences of proteins in these tests, tags left out.
UniProt Q9Y4X5: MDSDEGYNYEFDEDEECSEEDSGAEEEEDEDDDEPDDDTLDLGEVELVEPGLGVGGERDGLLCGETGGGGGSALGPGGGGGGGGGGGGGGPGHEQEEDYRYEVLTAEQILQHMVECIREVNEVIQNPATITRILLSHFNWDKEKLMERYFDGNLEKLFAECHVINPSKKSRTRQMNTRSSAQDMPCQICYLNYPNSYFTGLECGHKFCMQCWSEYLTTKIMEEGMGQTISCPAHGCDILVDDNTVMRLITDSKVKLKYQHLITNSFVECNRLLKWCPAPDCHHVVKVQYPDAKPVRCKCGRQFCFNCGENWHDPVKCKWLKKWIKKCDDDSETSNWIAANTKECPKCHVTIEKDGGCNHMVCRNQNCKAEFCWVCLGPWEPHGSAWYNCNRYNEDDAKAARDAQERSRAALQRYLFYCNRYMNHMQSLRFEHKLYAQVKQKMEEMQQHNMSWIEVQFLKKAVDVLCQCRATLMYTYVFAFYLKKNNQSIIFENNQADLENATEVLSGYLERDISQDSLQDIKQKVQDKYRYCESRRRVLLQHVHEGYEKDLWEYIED

Myc-PHB1 = target: T2, Myc-PHB1 (UniProt P35232); experiment: co-IP; HEK293T cells transfected for 24 h with Flag-ARIH1 (wild type or deletion mutants) and Myc-PHB1 (wild type or deletion mutants); anti-Flag or anti-Myc, Western blot
T2 sequence: T1 sequence

Substance: ARIH1 (from UniProt Q9Y4X5 1-557)
- binding [1]: binds

Substance: Flag-ARIH1 (from UniProt Q9Y4X5 1-557)
- binding (Myc-PHB1): binds

From article PMC12224947
